Results on two sequences are retold here after PMC3082224.

Amino acid sequences for entries named in this document (tags omitted).
UniProt Q04206, whole entry: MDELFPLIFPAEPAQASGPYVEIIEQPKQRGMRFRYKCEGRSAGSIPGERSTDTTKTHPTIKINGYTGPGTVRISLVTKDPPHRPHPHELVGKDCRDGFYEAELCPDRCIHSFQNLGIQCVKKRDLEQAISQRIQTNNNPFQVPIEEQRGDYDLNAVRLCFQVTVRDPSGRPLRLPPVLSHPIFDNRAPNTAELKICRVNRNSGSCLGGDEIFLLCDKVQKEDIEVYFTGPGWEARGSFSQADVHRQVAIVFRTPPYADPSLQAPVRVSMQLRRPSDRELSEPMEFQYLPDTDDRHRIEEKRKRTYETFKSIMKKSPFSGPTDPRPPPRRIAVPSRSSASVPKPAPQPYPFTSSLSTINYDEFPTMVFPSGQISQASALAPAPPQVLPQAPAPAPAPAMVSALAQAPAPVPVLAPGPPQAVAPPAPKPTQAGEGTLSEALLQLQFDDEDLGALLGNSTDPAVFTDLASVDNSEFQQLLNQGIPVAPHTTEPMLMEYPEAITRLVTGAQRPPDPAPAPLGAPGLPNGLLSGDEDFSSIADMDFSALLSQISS
UniProt P40763, whole entry: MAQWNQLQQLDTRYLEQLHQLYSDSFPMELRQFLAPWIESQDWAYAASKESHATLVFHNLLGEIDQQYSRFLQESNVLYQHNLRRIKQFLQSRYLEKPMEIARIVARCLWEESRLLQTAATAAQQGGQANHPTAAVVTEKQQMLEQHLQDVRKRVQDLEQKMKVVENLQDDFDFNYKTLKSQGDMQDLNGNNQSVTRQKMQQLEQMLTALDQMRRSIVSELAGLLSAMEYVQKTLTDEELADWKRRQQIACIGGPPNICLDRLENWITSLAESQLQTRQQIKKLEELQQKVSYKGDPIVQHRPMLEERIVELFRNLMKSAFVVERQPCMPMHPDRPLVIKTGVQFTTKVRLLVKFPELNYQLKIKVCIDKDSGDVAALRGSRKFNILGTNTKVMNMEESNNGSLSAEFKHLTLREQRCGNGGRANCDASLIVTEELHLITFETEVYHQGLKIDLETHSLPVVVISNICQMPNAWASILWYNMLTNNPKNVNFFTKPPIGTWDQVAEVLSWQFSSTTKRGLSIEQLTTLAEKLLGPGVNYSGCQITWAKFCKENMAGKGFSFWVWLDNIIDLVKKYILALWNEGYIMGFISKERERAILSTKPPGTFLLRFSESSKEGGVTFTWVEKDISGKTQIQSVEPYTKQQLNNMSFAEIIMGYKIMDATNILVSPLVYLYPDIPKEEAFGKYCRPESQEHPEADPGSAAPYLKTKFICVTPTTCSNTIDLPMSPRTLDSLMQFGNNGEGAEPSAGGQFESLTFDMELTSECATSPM

Holding throughout (experiment): pull-down
Data set [1] deals with NF-kB p65 (Homo sapiens (SW 480 cells)) (UniProt Q04206). To be noted: nuclear fraction, TNF-alpha-treated cells, higher basal level; 5' amino-(CH2)6 and 3' (CH2)3-amino linkers; 1% NP40, 50 mM Hepes pH 7.6, 140 mM NaCl, salmon sperm DNA 1 ug/assay, 1 ug biotinylated ODN, 100-200 ug nuclear extract, 30 min at 4 C, then avidin-Sepharose 2 h; protein in an extract; label: biotin on linkers; folded or branched DNA.

In data set [2] the target is T1, NF-kB p50 (Homo sapiens (SW 480 cells)) (UniProt P19838).
T1 sequence (looked up, limits assumed): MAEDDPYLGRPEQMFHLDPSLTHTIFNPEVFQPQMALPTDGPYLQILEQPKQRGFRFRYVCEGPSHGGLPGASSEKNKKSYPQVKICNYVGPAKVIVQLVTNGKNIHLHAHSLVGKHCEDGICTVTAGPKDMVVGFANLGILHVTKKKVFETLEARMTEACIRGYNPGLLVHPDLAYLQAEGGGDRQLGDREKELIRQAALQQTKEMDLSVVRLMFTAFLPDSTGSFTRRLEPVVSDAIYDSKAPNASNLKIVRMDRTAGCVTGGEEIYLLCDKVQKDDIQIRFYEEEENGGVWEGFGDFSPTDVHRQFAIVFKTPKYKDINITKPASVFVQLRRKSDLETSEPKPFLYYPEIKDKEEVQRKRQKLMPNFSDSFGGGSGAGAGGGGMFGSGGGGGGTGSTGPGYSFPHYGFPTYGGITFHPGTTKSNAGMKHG
Particulars: nuclear fraction, TNF-alpha-treated cells, insensitive to STAT3-decoy; 5' amino-(CH2)6 and 3' (CH2)3-amino linkers; 1% NP40, 50 mM Hepes pH 7.6, 140 mM NaCl, salmon sperm DNA 1 ug/assay, 1 ug biotinylated ODN, 100-200 ug nuclear extract, 30 min at 4 C, then avidin-Sepharose 2 h; protein in an extract; label: biotin on linkers; folded or branched DNA.

Data set [3] has as its target STAT3 (activated, endogenous) (Homo sapiens (SW 480 colon adenocarcinoma cells)) (UniProt P40763). Particulars: 5' amino-(CH2)6 and 3' (CH2)3-amino linkers, 1% NP40, 50 mM Hepes pH 7.6, 140 mM NaCl, salmon sperm DNA 1 ug/assay, 1 ug biotinylated ODN, 100-200 ug nuclear extract, 30 min at 4 C, then avidin-Sepharose 2 h, protein in an extract, label: biotin on linkers, folded or branched DNA.

Data set [4] relates to STAT3 (activated, endogenous) + NF-kB (p50 or p65 immunoblot). To be noted: nuclear fraction, IL-6-treated cells, NF-kB indirectly via STAT3; 5' amino-(CH2)6 and 3' (CH2)3-amino linkers; 1% NP40, 50 mM Hepes pH 7.6, 140 mM NaCl, salmon sperm DNA 1 ug/assay, 1 ug biotinylated ODN, 100-200 ug nuclear extract, 30 min at 4 C, then avidin-Sepharose 2 h; protein in an extract; label: biotin on linkers; folded or branched DNA.

The exact form of at least one protein or probe is not confirmed. Where cells or extracts were used, other partners may take part. For some of these results: A weaker result is weaker than the reference pair of the same experiment. For some of these results: At least one verdict was read from the data and is not stated in words by the source. For some of these results: Protein sequences can lack the tags named with them.

With “CTGGAAAGTCCCTCGAAGAGGGACTTTCCAG [hairpin decoy NF-kB-ODN]”, the binding result in data set [1] and in data set [2] was “binds” throughout.

Take “CATTTCCCGTAAATCGAAGATTTACGGGAAATG [hp STAT3-decoy ODN]”: the binding result in data set [3] (cytoplasmic fraction, untreated and IL-6-treated cells) was “binds more weakly”; in data set [3] (intracellular pull-down from cells transfected with biotinylated decoy, complex lacks karyopherin alpha), “binds”; in data set [3] (nuclear extract, IL-6-treated cells), “binds”; in data set [3] (nuclear extract, untreated cells, salmon sperm DNA competitor), “binds”; in data set [4], “binds”.
